Experimental data from paper PMC6715699.
These are yes or no findings as the source states them, for the method shown. In cells and extracts the contact can be indirect. Some entries that bind do so weakly or less than the wild type.

Chains of the proteins cited; added tags and fusions are not shown. Lines headed by an entry give the natural chain unless they say otherwise; changes in a name come on top. A line that says so, or that is headed by a name, gives the form on record, which may keep a tag or linker. Residues count along the entry.
UniProt Q06330: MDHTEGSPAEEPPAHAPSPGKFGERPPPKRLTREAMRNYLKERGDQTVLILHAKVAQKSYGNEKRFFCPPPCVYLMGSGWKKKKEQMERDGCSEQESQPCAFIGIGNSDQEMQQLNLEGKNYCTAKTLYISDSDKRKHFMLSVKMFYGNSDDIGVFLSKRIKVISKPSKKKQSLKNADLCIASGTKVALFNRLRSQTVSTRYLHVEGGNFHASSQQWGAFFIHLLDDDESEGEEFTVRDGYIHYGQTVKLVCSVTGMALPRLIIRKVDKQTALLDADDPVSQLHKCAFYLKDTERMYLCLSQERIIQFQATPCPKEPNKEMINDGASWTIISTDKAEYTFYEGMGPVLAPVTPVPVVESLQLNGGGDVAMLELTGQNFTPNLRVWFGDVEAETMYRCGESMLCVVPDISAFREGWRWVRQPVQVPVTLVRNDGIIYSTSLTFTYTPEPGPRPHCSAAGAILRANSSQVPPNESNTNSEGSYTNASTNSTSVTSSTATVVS
FLAG-tagged CSL BTD (166–334): residues 166-334 of Q06330

Assays:
[1] = target: FLAG-tagged full length (FL) CSL (human) (UniProt Q06330); test: co-IP; HEK293T cells expressing FLAG-tagged CSL FL, BTD or point mutants plus/minus FL UPF1 or FL Ku70; anti-FLAG M2 magnetic beads, immunoblotting
[2] = target: FLAG-tagged CSL BTD (166–334) (human) (UniProt Q06330); test: as above
[3] = target: FLAG-tagged CSL R192H (human) (UniProt Q06330); test: as above
[4] = target: FLAG-tagged CSL A258R (human) (UniProt Q06330); test: as above
[5] = target: FLAG-tagged CSL F235R (human) (UniProt Q06330); test: as above
[6] = target: FLAG-tagged CSL Q307R (human) (UniProt Q06330); test: as above
[7] = target: CSL (RBP-Jκ), endogenous (human (endogenous in HDFs)) (UniProt Q06330); test: co-IP; HDF lysates, anti-CSL antibodies or non-immune IgG, immunoblotting; endogenous proteins
[8] = target: CSL (RBP-Jκ), endogenous (human (endogenous in HDFs)) (UniProt Q06330); test: proximity ligation; Duolink PLA kit on fixed HDFs; HDFs with silenced CSL as negative control

Measured: binding

B1: full length (FL) UPF1, expressed in HEK293T (protein, UniProt Q92900 1-1129)
chain: MSVEAYGPSSQTLTFLDTEEAELLGADTQGSEFEFTDFTLPSQTQTPPGGPGGPGGGGAGGPGGAGAGAAAGQLDAQVGPEGILQNGAVDDSVAKTSQLLAELNFEEDEEDTYYTKDLPIHACSYCGIHDPACVVYCNTSKKWFCNGRGNTSGSHIVNHLVRAKCKEVTLHKDGPLGETVLECYNCGCRNVFLLGFIPAKADSVVVLLCRQPCASQSSLKDINWDSSQWQPLIQDRCFLSWLVKIPSEQEQLRARQITAQQINKLEELWKENPSATLEDLEKPGVDEEPQHVLLRYEDAYQYQNIFGPLVKLEADYDKKLKESQTQDNITVRWDLGLNKKRIAYFTLPKTDSGNEDLVIIWLRDMRLMQGDEICLRYKGDLAPLWKGIGHVIKVPDNYGDEIAIELRSSVGAPVEVTHNFQVDFVWKSTSFDRMQSALKTFAVDETSVSGYIYHKLLGHEVEDVIIKCQLPKRFTAQGLPDLNHSQVYAVKTVLQRPLSLIQGPPGTGKTVTSATIVYHLARQGNGPVLVCAPSNIAVDQLTEKIHQTGLKVVRLCAKSREAIDSPVSFLALHNQIRNMDSMPELQKLQQLKDETGELSSADEKRYRALKRTAERELLMNADVICCTCVGAGDPRLAKMQFRSILIDESTQATEPECMVPVVLGAKQLILVGDHCQLGPVVMCKKAAKAGLSQSLFERLVVLGIRPIRLQVQYRMHPALSAFPSNIFYEGSLQNGVTAADRVKKGFDFQWPQPDKPMFFYVTQGQEEIASSGTSYLNRTEAANVEKITTKLLKAGAKPDQIGIITPYEGQRSYLVQYMQFSGSLHTKLYQEVEIASVDAFQGREKDFIILSCVRANEHQGIGFLNDPRRLNVALTRARYGVIIVGNPKALSKQPLWNHLLNYYKEQKVLVEGPLNNLRESLMQFSKPRKLVNTINPGARFMTTAMYDAREAIIPGSVYDRSSQGRPSSMYFQTHDQIGMISAGPSHVAAMNIPIPFNLVMPPMPPPGYFGQANGPAAGRGTPKGKTGRGGRQKNRFGLPGPSQTNLPNSQASQDVASQPFSQGALTQGYISMSQPSQMSQPGLSQPELSQDSYLGDEFKSQIDVALSQDSTYQGERAYQHGGVTGLSQY
binds: [1] | [2]

B2: UPF1 in HEK293T cells (Fig. 8d) (protein, UniProt Q92900 1-1129)
chain: MSVEAYGPSSQTLTFLDTEEAELLGADTQGSEFEFTDFTLPSQTQTPPGGPGGPGGGGAGGPGGAGAGAAAGQLDAQVGPEGILQNGAVDDSVAKTSQLLAELNFEEDEEDTYYTKDLPIHACSYCGIHDPACVVYCNTSKKWFCNGRGNTSGSHIVNHLVRAKCKEVTLHKDGPLGETVLECYNCGCRNVFLLGFIPAKADSVVVLLCRQPCASQSSLKDINWDSSQWQPLIQDRCFLSWLVKIPSEQEQLRARQITAQQINKLEELWKENPSATLEDLEKPGVDEEPQHVLLRYEDAYQYQNIFGPLVKLEADYDKKLKESQTQDNITVRWDLGLNKKRIAYFTLPKTDSGNEDLVIIWLRDMRLMQGDEICLRYKGDLAPLWKGIGHVIKVPDNYGDEIAIELRSSVGAPVEVTHNFQVDFVWKSTSFDRMQSALKTFAVDETSVSGYIYHKLLGHEVEDVIIKCQLPKRFTAQGLPDLNHSQVYAVKTVLQRPLSLIQGPPGTGKTVTSATIVYHLARQGNGPVLVCAPSNIAVDQLTEKIHQTGLKVVRLCAKSREAIDSPVSFLALHNQIRNMDSMPELQKLQQLKDETGELSSADEKRYRALKRTAERELLMNADVICCTCVGAGDPRLAKMQFRSILIDESTQATEPECMVPVVLGAKQLILVGDHCQLGPVVMCKKAAKAGLSQSLFERLVVLGIRPIRLQVQYRMHPALSAFPSNIFYEGSLQNGVTAADRVKKGFDFQWPQPDKPMFFYVTQGQEEIASSGTSYLNRTEAANVEKITTKLLKAGAKPDQIGIITPYEGQRSYLVQYMQFSGSLHTKLYQEVEIASVDAFQGREKDFIILSCVRANEHQGIGFLNDPRRLNVALTRARYGVIIVGNPKALSKQPLWNHLLNYYKEQKVLVEGPLNNLRESLMQFSKPRKLVNTINPGARFMTTAMYDAREAIIPGSVYDRSSQGRPSSMYFQTHDQIGMISAGPSHVAAMNIPIPFNLVMPPMPPPGYFGQANGPAAGRGTPKGKTGRGGRQKNRFGLPGPSQTNLPNSQASQDVASQPFSQGALTQGYISMSQPSQMSQPGLSQPELSQDSYLGDEFKSQIDVALSQDSTYQGERAYQHGGVTGLSQY
binds: [3] | [1] | [4] | [5] | [6]

B3: UPF1 (Up-Frameshift Suppressor 1 Homolog), endogenous (protein, UniProt Q92900 1-1129)
chain: MSVEAYGPSSQTLTFLDTEEAELLGADTQGSEFEFTDFTLPSQTQTPPGGPGGPGGGGAGGPGGAGAGAAAGQLDAQVGPEGILQNGAVDDSVAKTSQLLAELNFEEDEEDTYYTKDLPIHACSYCGIHDPACVVYCNTSKKWFCNGRGNTSGSHIVNHLVRAKCKEVTLHKDGPLGETVLECYNCGCRNVFLLGFIPAKADSVVVLLCRQPCASQSSLKDINWDSSQWQPLIQDRCFLSWLVKIPSEQEQLRARQITAQQINKLEELWKENPSATLEDLEKPGVDEEPQHVLLRYEDAYQYQNIFGPLVKLEADYDKKLKESQTQDNITVRWDLGLNKKRIAYFTLPKTDSGNEDLVIIWLRDMRLMQGDEICLRYKGDLAPLWKGIGHVIKVPDNYGDEIAIELRSSVGAPVEVTHNFQVDFVWKSTSFDRMQSALKTFAVDETSVSGYIYHKLLGHEVEDVIIKCQLPKRFTAQGLPDLNHSQVYAVKTVLQRPLSLIQGPPGTGKTVTSATIVYHLARQGNGPVLVCAPSNIAVDQLTEKIHQTGLKVVRLCAKSREAIDSPVSFLALHNQIRNMDSMPELQKLQQLKDETGELSSADEKRYRALKRTAERELLMNADVICCTCVGAGDPRLAKMQFRSILIDESTQATEPECMVPVVLGAKQLILVGDHCQLGPVVMCKKAAKAGLSQSLFERLVVLGIRPIRLQVQYRMHPALSAFPSNIFYEGSLQNGVTAADRVKKGFDFQWPQPDKPMFFYVTQGQEEIASSGTSYLNRTEAANVEKITTKLLKAGAKPDQIGIITPYEGQRSYLVQYMQFSGSLHTKLYQEVEIASVDAFQGREKDFIILSCVRANEHQGIGFLNDPRRLNVALTRARYGVIIVGNPKALSKQPLWNHLLNYYKEQKVLVEGPLNNLRESLMQFSKPRKLVNTINPGARFMTTAMYDAREAIIPGSVYDRSSQGRPSSMYFQTHDQIGMISAGPSHVAAMNIPIPFNLVMPPMPPPGYFGQANGPAAGRGTPKGKTGRGGRQKNRFGLPGPSQTNLPNSQASQDVASQPFSQGALTQGYISMSQPSQMSQPGLSQPELSQDSYLGDEFKSQIDVALSQDSTYQGERAYQHGGVTGLSQY
binds: [7] | [8]
